From publication PMC5207070, “The Amino-terminal Domain of the Androgen Receptor Co-opts Extracellular Signal-regulated Kinase (ERK) Docking Sites in ELK1 Protein to Induce Sustained Gene Activation That Supports Prostate Cancer Cell Growth*^([image sbox.jpg])” (The Journal of Biological Chemistry, 2016)
Results are given in words; binding and its absence hold for the method and conditions named. In cells and extracts the contact can be indirect. Some binding calls cover weakened binding; strength is not graded here.

By UniProt entry, the sequences of proteins in these tests, tags left out.
UniProt P10275: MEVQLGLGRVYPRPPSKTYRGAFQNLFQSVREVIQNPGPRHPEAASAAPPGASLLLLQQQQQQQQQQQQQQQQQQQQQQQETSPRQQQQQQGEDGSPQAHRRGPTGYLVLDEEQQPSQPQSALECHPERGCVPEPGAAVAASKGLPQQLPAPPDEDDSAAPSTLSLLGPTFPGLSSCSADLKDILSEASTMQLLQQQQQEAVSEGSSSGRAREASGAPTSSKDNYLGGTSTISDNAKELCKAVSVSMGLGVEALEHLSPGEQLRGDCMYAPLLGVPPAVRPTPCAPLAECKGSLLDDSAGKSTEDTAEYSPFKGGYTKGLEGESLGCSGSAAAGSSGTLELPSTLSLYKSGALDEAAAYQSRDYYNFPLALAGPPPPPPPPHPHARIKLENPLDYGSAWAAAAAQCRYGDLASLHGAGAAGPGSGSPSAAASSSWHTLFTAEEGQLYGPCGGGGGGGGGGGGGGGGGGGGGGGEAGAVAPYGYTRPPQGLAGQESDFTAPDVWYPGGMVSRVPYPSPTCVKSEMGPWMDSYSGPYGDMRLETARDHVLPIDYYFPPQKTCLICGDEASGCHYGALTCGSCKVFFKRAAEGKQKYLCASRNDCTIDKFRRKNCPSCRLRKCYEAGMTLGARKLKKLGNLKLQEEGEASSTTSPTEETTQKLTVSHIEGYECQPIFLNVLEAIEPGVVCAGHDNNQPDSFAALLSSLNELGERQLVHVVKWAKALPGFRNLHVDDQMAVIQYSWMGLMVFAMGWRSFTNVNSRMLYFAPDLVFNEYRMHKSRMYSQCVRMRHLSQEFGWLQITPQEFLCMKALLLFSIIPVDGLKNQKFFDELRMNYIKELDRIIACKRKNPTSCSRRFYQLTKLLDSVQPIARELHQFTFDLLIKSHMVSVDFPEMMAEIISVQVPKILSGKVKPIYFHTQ

B1: His-tagged ELK1 (natural protein, human, UniProt P19419 1-428, looked up)
chain: MDPSVTLWQFLLQLLREQGNGHIISWTSRDGGEFKLVDAEEVARLWGLRKNKTNMNYDKLSRALRYYYDKNIIRKVSGQKFVYKFVSYPEVAGCSTEDCPPQPEVSVTSTMPNVAPAAIHAAPGDTVSGKPGTPKGAGMAGPGGLARSSRNEYMRSGLYSTFTIQSLQPQPPPHPRPAVVLPSAAPAGAAAPPSGSRSTSPSPLEACLEAEEAGLPLQVILTPPEAPNLKSEELNVEPGLGRALPPEVKVEGPKEELEVAGERGFVPETTKAEPEVPPQEGVPARLPAVVMDTAGQAGGHAASSPEISQPQKGRKPRDLELPLSPSLLGGPGPERTPGSGSGSGLQAPGPALTPSLLPTHTLTPVLLTPSSLPPSIHFWSTLSPIAPRSPAKLSFQFPSSGSAQVHIPSISVDGLSTPVVLSPGPQKP
notes: ELK1, recombinant; Construct details are in the supplemental material; also called purified ELK1
B2: ELK1Δ308–321 (protein, UniProt P19419)
chain: MDPSVTLWQFLLQLLREQGNGHIISWTSRDGGEFKLVDAEEVARLWGLRKNKTNMNYDKLSRALRYYYDKNIIRKVSGQKFVYKFVSYPEVAGCSTEDCPPQPEVSVTSTMPNVAPAAIHAAPGDTVSGKPGTPKGAGMAGPGGLARSSRNEYMRSGLYSTFTIQSLQPQPPPHPRPAVVLPSAAPAGAAAPPSGSRSTSPSPLEACLEAEEAGLPLQVILTPPEAPNLKSEELNVEPGLGRALPPEVKVEGPKEELEVAGERGFVPETTKAEPEVPPQEGVPARLPAVVMDTAGQAGGHAASSPEIPLSPSLLGGPGPERTPGSGSGSGLQAPGPALTPSLLPTHTLTPVLLTPSSLPPSIHFWSTLSPIAPRSPAKLSFQFPSSGSAQVHIPSISVDGLSTPVVLSPGPQKP
B3: ELK1 FxLa (protein, UniProt P19419 1-428)
chain: MDPSVTLWQFLLQLLREQGNGHIISWTSRDGGEFKLVDAEEVARLWGLRKNKTNMNYDKLSRALRYYYDKNIIRKVSGQKFVYKFVSYPEVAGCSTEDCPPQPEVSVTSTMPNVAPAAIHAAPGDTVSGKPGTPKGAGMAGPGGLARSSRNEYMRSGLYSTFTIQSLQPQPPPHPRPAVVLPSAAPAGAAAPPSGSRSTSPSPLEACLEAEEAGLPLQVILTPPEAPNLKSEELNVEPGLGRALPPEVKVEGPKEELEVAGERGFVPETTKAEPEVPPQEGVPARLPAVVMDTAGQAGGHAASSPEISQPQKGRKPRDLELPLSPSLLGGPGPERTPGSGSGSGLQAPGPALTPSLLPTHTLTPVLLTPSSLPPSIHFWSTLSPIAPRSPAKLSFQLASSGSAQVHIPSISVDGLSTPVVLSPGPQKP

What follows are binders tested against full-length androgen receptor (AR), ectopically expressed (human) (UniProt P10275) (assay: co-IP; HeLa cells co-transfected with AR and ELK1 or ELK1 mutants; RIPA lysates (500 μg); immunoprecipitation with anti-AR antibody (ab74272) on protein A-agarose, 4 °C overnight; blot with anti-AR and anti-ELK1).
For B1, the binding was “binds”.
In the case of B2, the binding is reported as “no binding”.
With B3 the binding was “no binding”.
